Measured values reported in PubChem BioAssay AID624246 (National Center for Advancing Translational Sciences (NCATS), 2012).
Among all 370,000 compounds or so, about 100 (0.027%) were called active. The shares of active, inactive and inconclusive entries below differ from those in the screen. The call rests on the fitted dose curve; in most records, active means well fitted inhibition curve with a large enough effect in the polarisation, with a control signal flat; inconclusive means small, poorly fitted or top-dose-only effect, or effect the other way, or a change in a side signal; inactive means no such curve, though single readings can be large or run the other way; the % refers to the polarisation. A potency beside an inconclusive call is a rough fit, not a confirmed value. “Side channel” marks fits to a control or component signal instead of the main read-out.

The chains behind the UniProt entries cited, without tags or fusion partners.
UniProt P11308, whole entry, looked up: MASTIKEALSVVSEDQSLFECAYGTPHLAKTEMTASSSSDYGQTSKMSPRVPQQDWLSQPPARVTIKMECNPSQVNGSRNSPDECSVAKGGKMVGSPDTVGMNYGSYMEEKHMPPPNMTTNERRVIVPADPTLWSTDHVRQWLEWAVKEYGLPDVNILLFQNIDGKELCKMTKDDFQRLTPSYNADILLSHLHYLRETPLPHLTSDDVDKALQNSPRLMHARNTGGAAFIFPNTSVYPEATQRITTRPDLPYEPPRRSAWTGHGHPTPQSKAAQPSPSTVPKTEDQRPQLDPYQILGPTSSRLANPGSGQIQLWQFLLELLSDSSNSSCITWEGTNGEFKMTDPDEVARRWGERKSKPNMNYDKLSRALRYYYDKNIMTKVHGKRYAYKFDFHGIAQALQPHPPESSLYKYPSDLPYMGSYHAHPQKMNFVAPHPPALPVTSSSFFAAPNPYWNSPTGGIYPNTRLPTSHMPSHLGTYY

What follows are molecules tested against Transcriptional regulator ERG (Homo sapiens) (UniProt P11308) (assay: qHTS for Small Molecule Inhibitors of the ERG Ets/DNA interaction). Settings: fluorescence polarization, His-ERG Ets domain / labelled DNA; FP activity, negative = inhibition: at 76.9 µM (top of the series).
From the text: The Ets family of proteins is a family of ~30 conserved transcription factors defined by the presence of an ~85 amino acid domain referred to as the Ets domain, which mediates sequence-specific DNA binding to a core DNA element GGAA/T.The Ets family member ERG has been linked to several neoplasms. […] More extensive studies of the effects of over-expression of ERG in prostate cells have recently been carried out and have shown that over-expression of ERG results in increased invasion. […] We will carry out a high throughout screen to identify inhibitors of the interaction between ERG and DNA using a fluorescence polarization (FP) assay with a His-tagged ERG Ets domain and fluorescently-labeled DNA probes to develop small molecule inhibitors of this interaction as probes to test this hypothesis and lay the groundwork for the development of targeted therapies against ERG. NIH Molecular Libraries Probe Production Network [MLPCN] NIH Chemical Genomics Center [NCGC] Grant: NS066464 PI Name: John Bushweller, University of Virgina
1.5 ul of protein solution (1 uM ERG domain in 300mM KCl, 50mM Tris-HCl, 1mM EDTA, 1mM DTT, pH 7.5); 20 nl Control plate and compound library plate; 1.5 ul mixture of 5 nM Fluorescein-DNA and 100nM Texas-615-DNA solution in same buffer as above solution; measure fluorescence polarization sequentially for fluorescein (Excitation = 480 nm, Emission = 535s, 535p nm) and Texas red (Excitation = 555 nm, Emission = 632s, 632p nm).
Potency means the concentration at half of the fitted maximal effect.
Wherever FP activity, negative = inhibition is given: % of control where 0% means no effect.

SMILES | FP activity, negative = inhibition | Potency
Cc1cc(C)n(CC(=O)Nc2cccc(C(F)(F)F)c2)n1 | inactive: 3.6% | 
CC1CCCCN1C(=O)c1cnn2c(C(F)(F)F)cc(-c3ccco3)nc12 (centres undefined) | inactive: 10.3% | 
COc1ccccc1N1CCN(/N=C/c2ccc(OC)c(OC)c2OC)CC1 | inactive: 2.04% | 
S=C(NCCc1ccccc1)NCC(c1ccco1)N1CCCCC1 (centres undefined) | inactive: 5.03% | 
COc1cc(C=C(c2nc3ccccc3s2)c2nc3ccccc3s2)cc(OC)c1O |  | inconclusive: 50.1 µM [fluorescent, side channel, single point]
CCNc1nc(NC(C)(C)C)nc(N2CCCCC2)n1 |  | inconclusive: 44.7 µM [inhibitor, single point]
Cc1nnc(-c2cccc(Br)c2)c2cn(-c3ccc(Br)cc3)nc12 |  | inconclusive: 44.7 µM [fluorescent, side channel, single point]
O=C(COC(=O)CNC(=O)c1sc2ccccc2c1Cl)Nc1cc(Cl)cc(Cl)c1 |  | inconclusive: 2 µM [quencher, side channel, full curve, poor fit]
COC(=O)CC1Oc2ccc(Cl)cc2-n2cc(-c3ccc(F)cc3)nc21 (centres undefined) |  | inconclusive: 3.55 µM [quencher, side channel, partial curve, poor fit]
COc1ccc(Cc2nc3ccc(C(=O)NCC(C)(C)OC)cc3o2)cc1 | inactive: 8.07% | 
Cc1cccc(NC(=O)/C(C#N)=C\c2cccnc2)c1 |  | inconclusive: 12.6 µM [fluorescent, side channel, partial curve, poor fit]
CCc1cccc(NC(=O)C2CCCN(S(=O)(=O)c3ccc4[nH]c(=O)ccc4c3)C2)c1 (centres undefined) |  | inconclusive: 35.5 µM [inhibitor, partial curve, poor fit]
CCc1ccnc(NC(=O)Nc2ccc(OCc3ccccc3)cc2)c1 |  | inconclusive: 28.2 µM [inhibitor, single point]
Clc1cccc(Nc2ncnc3c2cnn3-c2ccccc2)c1 | inactive: 2.75% | 
CCCc1cnc(N2CCN(C(=O)c3ccc(F)cc3)CC2)nc1 |  | inconclusive: 39.8 µM [inhibitor, partial curve, poor fit]
COc1ccc(OCCN2CCN(C(=O)c3ccc(OC(F)F)c(OC)c3)CC2)cc1 |  | inconclusive: 10 µM [inhibitor, single point]
O=C(NCCc1ccccc1)c1ccc(CSc2nc3ccncc3n2Cc2cccc(F)c2)cc1 |  | inconclusive: 25.1 µM [quencher, side channel, partial curve, poor fit]
Cc1ccc(C(=O)NC2(O)C(=O)c3ccccc3C2=O)cc1C |  | inconclusive: 2.82 µM [quencher, side channel, partial curve, poor fit]
CCn1c(CNc2ccc(OC)cc2)nnc1SCC(=O)N1CCCc2ccccc21 | inactive: 3.11% | 
Cn1c(C(=O)N2CCN(C(=O)c3ccco3)CC2)cc2c(=O)n3ccccc3nc21 | inactive: 13.4% | 
Cc1ccc(C)c(S(=O)(=O)N2CC(=O)N(CCc3ccccc3)C(=O)C2)c1 |  | inconclusive: 11.2 µM [inhibitor, single point]
COc1ccc(/C=C/C(=O)OCC(=O)Nc2cccc(S(=O)(=O)NC3=NCCCCC3)c2)cc1 | inactive: 14.5% | 
Cc1cc2oc3ccc(NCCCn4ccnc4)cc3c(=O)c2cc1C |  | active: 17.8 µM

Look-ups from the results shown.
Entry of COc1ccccc1N1CCN(/N=C/c2ccc(OC)c(OC)c2OC)CC1 under FP activity, negative = inhibition: inactive: 2.04%
Entry of Cc1cc(C)n(CC(=O)Nc2cccc(C(F)(F)F)c2)n1 under FP activity, negative = inhibition: inactive: 3.6%
Entry of Cc1ccc(C)c(S(=O)(=O)N2CC(=O)N(CCc3ccccc3)C(=O)C2)c1 under Potency: inconclusive: 11.2 µM [inhibitor, single point]
Entry of COc1ccc(OCCN2CCN(C(=O)c3ccc(OC(F)F)c(OC)c3)CC2)cc1 under Potency: inconclusive: 10 µM [inhibitor, single point]

(next part)

SMILES | FP activity, negative = inhibition | Potency
NC(=O)c1c(NC(=O)c2ccccc2)sc2c1CCN(Cc1ccccc1)C2 | inactive: 12.5% | 
Cc1nccc(-c2ccc(-n3cnc4ccccc43)cc2)n1 | inactive: 5.9% | 
O=C1NC(=O)C(c2ccccc2)(c2ccccc2)N1 |  | inconclusive: 10 µM [inhibitor, single point]
CCCC(C)NC(=O)c1ccc2[nH]c3c(c2c1)CC(C)CC3 (centres undefined) |  | inconclusive: 3.98 µM [fluorescent, side channel, partial curve, poor fit]
CCOc1ccc(OCC(=O)c2c(O)c3ccccc3oc2=O)cc1 | inactive: -2.19% | 
CCOC(=O)C1CCN(S(=O)(=O)c2ccc3c(c2)CC(=O)N3C)CC1 | inactive: -4.29% | 
CCCCN1Cc2c(nc3cc(-c4ccccc4)[nH]n3c2=O)C1=O |  | inconclusive: 39.8 µM [fluorescent, side channel, partial curve]
CCC1(c2ccccc2)NC(=O)N(CC(=O)Nc2cc(S(=O)(=O)N3CCCCC3)ccc2OC(C)C)C1=O (centres undefined) |  | inconclusive: 11.2 µM [inhibitor, single point]
O=C(CSc1nnc(-c2cccnc2)o1)Nc1cccc(Cl)c1 |  | inconclusive: 11.2 µM [inhibitor, single point]
Cn1c(=O)c(=O)n(C)c2cc(S(=O)(=O)N3CCN(c4ccc(F)cc4)CC3)ccc21 |  | inconclusive: 28.2 µM [quencher, side channel, single point]
Cc1cc(C2=NNC(=NC3CC3)SC2)c(C)n1-c1ccccc1 | inactive: -13.2% | 
O=C(COC(=O)/C=C/c1ccccc1[N+](=O)[O-])NCc1ccco1 | inactive: -0.575% | 
COc1ccc(NC(=O)CSc2nc(SC)ns2)cc1 | inactive: 1.68% | 
CC(C)(C)c1ccc(OCC(=O)Nc2cccc(S(=O)(=O)NC3=NCCCCC3)c2)cc1 |  | inconclusive: 7.08 µM [inhibitor, single point]
CCOC(=O)Cn1c(=NC(=O)C2COc3ccccc3O2)sc2cc(S(N)(=O)=O)ccc21 (centres undefined) | inactive: 4.26% | 
COc1cc(/C=C2/CCC/C(=C\c3cc(O)c(OC)c(Cl)c3)C2=O)cc(Cl)c1O |  | inconclusive: 28.2 µM [fluorescent, side channel, partial curve]
Cc1cccc(OCC(=O)N(Cc2ccc(C(C)(C)C)cc2)Cc2ccco2)c1 |  | inconclusive: 56.2 µM [inhibitor, partial curve, poor fit]
Cn1ncc([N+](=O)[O-])c1C(=O)N/N=C/c1cccc([N+](=O)[O-])c1 |  | inconclusive: 35.5 µM [quencher, side channel, single point]
O=C(Nc1cccc(Cl)c1)c1ccc(S(=O)(=O)NCC2CCCO2)cc1 (centres undefined) | inactive: 9.66% | 
Cc1ccc(NC(=O)Cn2nc(-c3ccncc3)ccc2=O)cc1Cl | inactive: -1.49% | 
Cc1ccc2sc3ccc(NC(=O)c4ccccc4Cl)cc3c(=O)c2c1 |  | inconclusive: 35.5 µM [fluorescent, side channel, single point]
Cc1ccc(NC(=O)C(=O)NCCN2CCN(C(=S)Nc3ccccc3)CC2)cc1 |  | inconclusive: 56.2 µM [fluorescent, side channel, single point]
O=C(NC(=S)Nc1cccnc1)c1cc2ccccc2o1 |  | inconclusive: 31.6 µM [inhibitor, partial curve, poor fit]

SMILES | FP activity, negative = inhibition | Potency
COc1cccc(CN(C(=O)/C=C/c2ccco2)C2CCS(=O)(=O)C2)c1 (centres undefined) | inactive: 10.8% | 
COc1ccccc1N1CN(Cc2ccccc2)CNC1=S | inactive: 3.6% | 
O=C(Nc1ccccc1Br)c1ccccc1-c1ccccc1 |  | inconclusive: 50.1 µM [inhibitor, partial curve, poor fit]
Cc1nc2ncnn2c(C)c1CCC(=O)N1CCN(c2ccccc2)CC1 |  | inconclusive: 3.16 µM [quencher, side channel, partial curve, poor fit]
CCOC(=O)c1sc(=S)n(-c2ccccc2)c1C | inactive: -5.31% | 
Cc1cc2nc3ccc(N(C)C)cc3nc2cc1N |  | inconclusive: 31.6 µM [inhibitor, single point]
CCOC(=O)Cn1c(=O)n(CC2CCCO2)c2nc(-c3cccc(C)c3)nc(C(N)=O)c21 (centres undefined) | inactive: 0.698% | 
Cc1ccc(S(=O)(=O)/N=C(/NC(=S)Nc2ccccc2)c2ccccc2)cc1 | inactive: -0.664% | 
Cc1ccc(Cn2c(=O)c3c(nc4n3CCN4Cc3ccco3)n(C)c2=O)cc1 | inactive: 4.47% | 
CCC(C(=O)Nc1ccncc1)c1ccccc1 (centres undefined) | inactive: -1.35% | 
Cc1c(C(c2ccccc2)c2c(C)n(C)n(-c3ccccc3)c2=O)c(=O)n(-c2ccccc2)n1C | inactive: 12.4% | 
Cc1cc(C)nc(N2CCN(c3nnnn3-c3ccccc3)CC2)n1 |  | inconclusive: 100 µM [inhibitor, single point]
Cc1ccc(N(CC(=O)N2CCOCC2)S(C)(=O)=O)cc1 | inactive: 4.07% | 
COCCCNC(=O)c1cc2cc([N+](=O)[O-])cc(OC)c2oc1=O |  | inconclusive: 2.24 µM [inhibitor, partial curve, poor fit]
N#CC1=C2SCC(O)(c3ccccc3)N2C(=O)CC1c1ccccc1F (centres undefined) |  | inconclusive: 35.5 µM [fluorescent, side channel, partial curve, poor fit]
Cc1cc(C)c(C)c(S(=O)(=O)N2CCN(c3ccccn3)CC2)c1C | inactive: 11.6% | 
CCn1c(SCC(=O)N2CCCc3ccccc32)nnc1-c1c[nH]c2ccccc12 | inactive: -0.617% | 
Cc1ccc(NC(=O)c2ccc3c(c2)C(=O)N(Cc2cccnc2)C3=O)c(C)c1 |  | inconclusive: 11.2 µM [quencher, side channel, single point]
COc1ccc(OCC(=O)Nc2cc(-c3ccccc3F)nn2-c2ccccc2)cc1 |  | inconclusive: 0.891 µM [inhibitor, full curve, poor fit]
Nc1c(C(=O)NCc2ccc(Cl)cc2Cl)nnn1Cc1ccc(Br)cc1 |  | inconclusive: 100 µM [inhibitor, single point]
C=CCOn1c(=O)c(-c2cccs2)[n+]([O-])c2ccccc21 | inactive: 2.26% | 
C#C[C@]1(O)CC[C@H]2[C@@H]3CCC4=CC(=O)CC[C@@H]4[C@H]3CC[C@@]21CC |  | inconclusive: 0.891 µM [inhibitor, full curve, poor fit]
COc1cc(/C=C/C(=O)OC(C)C(=O)c2ccccc2)cc(OC)c1OC (centres undefined) |  | inconclusive: 11.2 µM [inhibitor, single point]
